Counter-ions that a name gives are not always drawn. Several reference drugs read as weak here; read low effects with care.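 All three lines are high-grade serous ovarian cancer cells differing in chemosensitivity, with OVCAR3 described as the chemosensitive one. Toxicity was scaled between DMSO vehicle wells and fully lysed wells, the score derives from a fitted multi-dose response curve, and the authors counted a score above 5 as drug sensitivity.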
Key:
Test in all cases: drug sensitivity score (DSS2, cytotoxicity, CellTox Green); higher = more cytotoxic / more sensitive; extreme values may be limits of the assay
Details in all cases: 72 h; doses 0.5, 1, 5 µM
OVCAR4 = test system: OVCAR4
OVCAR3 = test system: OVCAR3
Kuramochi = test system: Kuramochi

| SMILES | drug sensitivity score (OVCAR4) [DSS] | drug sensitivity score (OVCAR3) [DSS] | drug sensitivity score (Kuramochi) [DSS] |
| --- | --- | --- | --- |
| CCCCCN(C)CCC(O)(P(=O)(O)O)P(=O)(O)O [Ibandronate (Sodium Monohydrate)] | 0 | 0 | 0 |
| N=C(N)Nc1ccc(C(=O)Oc2ccc3cc(C(=N)N)ccc3c2)cc1 [Nafamostat (mesylate)] | 0 | 0 | 0 |
| N=C(N)NC(=O)c1nc(Cl)c(N)nc1N [Amiloride hydrochloride dihydrate] | 0 | 0 | 0 |
| O=C1OC(C(O)CO)C([O-])=C1O.[Na+] [L-Ascorbic acid (sodium salt)] | 0 | 0 | 0 |
| N[C@@H](CC(=O)N1CCn2c(nnc2C(F)(F)F)C1)Cc1cc(F)c(F)cc1F [Sitagliptin] | 0 | 0 | 0 |
| COC(=O)N[C@@H](C)CNc1nccc(-c2cn(C(C)C)nc2-c2cc(Cl)cc(NS(C)(=O)=O)c2F)n1 [Encorafenib] | 0 | 0 | 0 |
| COc1ccc(C2=N[C@H](c3ccc(Cl)cc3)[C@H](c3ccc(Cl)cc3)N2C(=O)N2CCNC(=O)C2)c(OC(C)C)c1 [Nutlin-3b] | 0 | 0 | 0 |
| CC(C)=CCC/C(C)=C/CC/C(C)=C/C=C/C(C)=C/C(=O)O [Peretinoin] | 0 | 0 | 0 |
| CN1CCC[C@@H]1CCO[C@](C)(c1ccccc1)c1ccc(Cl)cc1 [Clemastine (fumarate)] | 0 | 0.6 | 0 |
| Nc1nc(NC2CC2)c2ncn([C@H]3C=C[C@@H](CO)C3)c2n1 [Abacavir] | 0 | 0 | 0 |
| COc1cc2c(cc1OC(C)C)[C@H](c1ccc(Cl)cc1)N(c1ccc(N(C)C[C@H]3CC[C@H](N4CCN(C)C(=O)C4)CC3)cc1)C(=O)C2 [NVP-CGM097] | 0 | 0 | 0 |
| CCc1oc2ccccc2c1C(=O)c1cc(Br)c(O)c(Br)c1 [Benzbromarone] | 0 | 0 | 0 |
| CC(C)=CCOc1ccc(/C=C/C(=O)c2ccc(OCC=C(C)C)cc2OCC(=O)O)cc1 [Sofalcone] | 0 | 0 | 0 |
| Cc1c(C)c2c(c(C)c1O)CCC(C)(CCCC(C)CCCC(C)CCCC(C)C)O2 (racemic) [DL-alpha-Tocopherol] | 0 | 0 | 0 |
| OC(CNCC(O)C1CCc2cc(F)ccc2O1)C1CCc2cc(F)ccc2O1 (stereo not drawn) [Nebivolol (hydrochloride)] | 0 | 0 | 0 |
| CC(=O)c1ccc2c(c1)c1cc(C(C)=O)ccc1n2CCNC(C)C [CBL0137 hydrochloride] | 1.4 | 0.2 | 0 |
| CCCCCCCCCCCC1=C(O)C(=O)C=C(O)C1=O [Embelin] | 0 | 0 | 0 |
| O=C(c1ccc(F)c(F)c1Nc1ccc(I)cc1F)N1CC(O)([C@@H]2CCCCN2)C1 [Cobimetinib (hemifumarate)] | 0 | 0 | 0 |
| COc1cccc2c1C(=O)c1c(O)c3c(c(O)c1C2=O)C[C@@](O)(C(=O)CO)C[C@@H]3O[C@H]1C[C@H](N)[C@H](O)[C@H](C)O1 [Doxorubicin (hydrochloride)] | 0 | 0 | 0 |
| CCc1ccc(CCOc2ccc(CC3SC(=O)NC3=O)cc2)nc1 (stereo not drawn) [Pioglitazone] | 0 | 0 | 0 |
| O=C(Nc1ccc([N+](=O)[O-])cc1Cl)c1cc(Cl)ccc1O [Niclosamide] | 0 | 0 | 0 |
| O=C1O[C@H]([C@@H](O)CO)C(O)=C1O [L-Ascorbic acid] | 0 | 0 | 0 |
| CC(=O)N[C@@H](CCC(N)=O)C(=O)O [Aceglutamide] | 0 | 0 | 0 |

Part of the list above, reduced to drug sensitivity score (Kuramochi) [DSS] and drug sensitivity score (OVCAR3) [DSS].
SMILES	drug sensitivity score (Kuramochi) [DSS]	drug sensitivity score (OVCAR3) [DSS]
N=C(N)Nc1ccc(C(=O)Oc2ccc3cc(C(=N)N)ccc3c2)cc1 [Nafamostat (mesylate)]	0	0
N=C(N)NC(=O)c1nc(Cl)c(N)nc1N [Amiloride hydrochloride dihydrate]	0	0
O=C1OC(C(O)CO)C([O-])=C1O.[Na+] [L-Ascorbic acid (sodium salt)]	0	0
N[C@@H](CC(=O)N1CCn2c(nnc2C(F)(F)F)C1)Cc1cc(F)c(F)cc1F [Sitagliptin]	0	0

Continuation:

| SMILES | drug sensitivity score (OVCAR4) [DSS] | drug sensitivity score (OVCAR3) [DSS] | drug sensitivity score (Kuramochi) [DSS] |
| --- | --- | --- | --- |
| O=C(O)[C@@H]1NC2(CCCCC2)[C@@]2(C(=O)Nc3cc(Cl)ccc32)[C@H]1c1cccc(Cl)c1F [MDM2-IN-1] | 0 | 0 | 0 |
| COC(=O)CCc1ccc(OCC(O)CNC(C)C)cc1 (stereo not drawn) [Esmolol (hydrochloride)] | 0 | 0 | 0 |
| COc1ccc(-c2cc(C(F)F)nn2-c2ccc(S(N)(=O)=O)cc2)cc1F [Deracoxib] | 0 | 0 | 0 |
| Oc1ccc(/C=C/c2cc(O)cc(O)c2)cc1 [Resveratrol] | 0 | 0 | 0 |
| Cn1c(O)c(C2=c3ccccc3=NC2=O)c2ccccc21 [Meisoindigo] | 0 | 0 | 0 |
| Nc1nnc(-c2cccc(Cl)c2Cl)c(N)n1 [Lamotrigine] | 0 | 0 | 0 |
| COc1c(O)cc2c(c1O)[C@@H]1O[C@H](CO)[C@@H](O)[C@H](O)[C@H]1OC2=O [Bergenin] | 0 | 0 | 0 |
| CNCCC=C1c2ccccc2CCc2ccccc21 [Nortriptyline (hydrochloride)] | 0 | 0 | 4 |
| C[C@H]1[C@H](OC(=O)CCC(=O)O)O[C@@H]2O[C@@]3(C)CC[C@H]4[C@H](C)CC[C@@H]1[C@@]24OO3 [Artesunate] | 1.8 | 0 | 0 |
| CC[C@H](C)[C@H]1O[C@]2(CC[C@@H]1C)C[C@@H]1C[C@@H](C/C=C(\C)[C@@H](O[C@H]3C[C@H](OC)C(O[C@H]4C[C@H](OC)[C@@H](O)[C@H](C)O4)[C@H](C)O3)[C@@H](C)/C=C/C=C3\CO[C@@H]4[C@H](O)C(C)=C[C@@H](C(=O)O1)[C@]34O)O2.CO[C@H]1C[C@H](O[C@@H]2/C(C)=C/C[C@@H]3C[C@@H](C[C@]4(CC[C@H](C)[C@@H](C(C)C)O4)O3)OC(=O)[C@@H]3C=C(C)[C@@H](O)[C@H]4OC/C(=C\C=C\[C@@H]2C)[C@]43O)O[C@@H](C)C1O[C@H]1C[C@H](OC)[C@@H](O)[C@H](C)O1 (stereo partly drawn) [Ivermectin] | 0 | 0 | 0 |
| CCN(C(=O)c1c(O)c2c(Cl)cccc2n(C)c1=O)c1ccccc1 [Laquinimod] | 0 | 0 | 0 |
| CC(=O)Nc1cccc(-n2c(=O)n(C3CC3)c(=O)c3c(Nc4ccc(I)cc4F)n(C)c(=O)c(C)c32)c1 [Trametinib (DMSO solvate)] | 0 | 0 | 0 |
| CCS(=O)(=O)N1CC(CC#N)(n2cc(-c3ncnc4[nH]ccc34)cn2)C1 [Baricitinib (phosphate)] | 0 | 0 | 0 |
| COc1ccc([C@@H]2CC(=O)c3c(O)cc(O[C@@H]4O[C@H](CO[C@@H]5O[C@@H](C)[C@H](O)[C@@H](O)[C@H]5O)[C@@H](O)[C@H](O)[C@H]4O)cc3O2)cc1O [Hesperidin] | 0 | 0 | 0 |
| O=[N+]([O-])c1ccc(-c2cn3c4c(sc3n2)CCCC4)cc1 [Pifithrin-α, p-Nitro, Cyclic] | 0 | 0 | 0 |
| CC(C)(C)NC(=O)[C@@H]1C[C@@H]2CCCC[C@@H]2CN1C[C@@H](O)[C@H](Cc1ccccc1)NC(=O)[C@H](CC(N)=O)NC(=O)c1ccc2ccccc2n1 [Saquinavir (Mesylate)] | 1.8 | 2.3 | 0 |
| CCN(CC)CCNC(=O)c1ccc(N)cc1 [Procainamide (hydrochloride)] | 0 | 0 | 0 |
| CC(C(=O)O)c1cccc(Oc2ccccc2)c1 (stereo not drawn) [Fenoprofen (Calcium hydrate)] | 0 | 0 | 0 |
| CC(=NNC(=S)N1CCC1)c1ccccn1 | 0 | 0 | 0 |
| Fc1ccc([C@@H]2CCNC[C@H]2COc2ccc3c(c2)OCO3)cc1 [Paroxetine (hydrochloride)] | 0 | 0 | 0 |
| CC(C)C[C@H](NC(=O)CNC(=O)c1cc(Cl)ccc1Cl)B1OC(=O)C(CC(=O)O)(CC(=O)O)O1 [Ixazomib citrate] | 2.3 | 2.3 | 2.6 |
| CC(=O)O[C@@]12CO[C@@H]1C[C@H](O)[C@@]1(C)C(=O)[C@H](O)C3=C(C)[C@@H](OC(=O)[C@H](O)[C@@H](NC(=O)OC(C)(C)C)c4ccccc4)C[C@@](O)([C@@H](OC(=O)c4ccccc4)[C@H]21)C3(C)C [Docetaxel] | 0 | 1.4 | 1.6 |
| CCOC(=O)/C=C(C)/C=C/C=C(C)/C=C/c1c(C)cc(OC)c(C)c1C [Etretinate] | 0 | 0 | 0 |
